# Test results as given in the supplement of paper PMC8975748.
# Counter-ions that a name gives are not always drawn. ± gives the standard deviation of the averaged measurements. The list shows a part of the results. These are raw signals, not scaled to a control.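 The yeast community starts from one strain carrying four plasmids, each with an amino-acid or uracil synthesis gene and a fluorescent protein. Random plasmid loss creates mixed prototroph and auxotroph subpopulations. Cells were fixed and counted by automated confocal fluorescence imaging, and DMSO-treated wells served as the vehicle reference.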
# System: Saccharomyces cerevisiae BY4741 SeMeCo community
# Test: imaged cell count per well (cells); higher = more cells
# Settings: 10 µM; 24 h; SM minimal medium
# Description: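 Same SeMeCo high-content imaging drug screen: Selleck FDA-approved drugs at 10 µM, 24 h in SM medium, 384-well plates, 3 replicates.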
row,SMILES,imaged cell count per well
1,CN(C)CCCN1c2ccccc2Sc2ccc(Cl)cc21 [Chlorpromazine HCl],23200 ± 2500
2,Fc1ccc(C(c2ccc(F)cc2)N2CCN(C/C=C/c3ccccc3)CC2)cc1 [Flunarizine 2HCl],18700 ± 2300
3,CCC[C@@H]1C[C@@H](C(=O)N[C@@H]([C@H]2O[C@H](SC)[C@H](O)[C@@H](O)[C@H]2O)[C@@H](C)O)N(C)C1 [Lincomycin Hydrochloride Monohydrate],22300 ± 5800
4,O=C(O)C1=C(CSc2nnnn2CS(=O)(=O)O)CS[C@@H]2[C@H](NC(=O)[C@H](O)c3ccccc3)C(=O)N12 [Cefonicid sodium],25700 ± 4700
5,N=C(N)NC(=N)N1CCOCC1 [Moroxydine HCl],24600 ± 1900
6,COc1cccc2c1C(=O)c1c(O)c3c(c(O)c1C2=O)C[C@@](O)(C(C)=O)C[C@@H]3O[C@H]1C[C@H](N)[C@H](O)[C@H](C)O1 [Daunorubicin HCl],19100 ± 4000
7,CC(=O)N1CCN(c2ccc(OCC3COC(Cn4ccnc4)(c4ccc(Cl)cc4Cl)O3)cc2)CC1 (stereo not drawn) [Ketoconazole],33400 ± 5000
8,CCC1(C)CC(=O)NC1=O (stereo not drawn) [Ethosuximide],18500 ± 10000
9,CC1=C(C(=O)O)N2C(=O)[C@@H](NC(=O)[C@H](N)c3ccccc3)[C@H]2SC1 [Cephalexin],30200 ± 6200
10,C[C@H]1COc2c(C3(N)CC3)c(F)cc3c(=O)c(C(=O)O)cn1c23 [Pazufloxacin mesylate],21000 ± 10000
11,Oc1ccc(Cl)c2cccnc12 [Cloxiquine],759 ± 220
12,CCC[C@@H]1C[C@@H](C(=O)N[C@@H]([C@H]2O[C@H](SC)[C@H](O)[C@@H](O)[C@H]2O)[C@@H](C)O)N(C)C1 [Lincomycin HCl],25000 ± 4200
13,COCCCN1CCC(NC(=O)c2cc(Cl)c(N)c3c2OCC3)CC1 [Prucalopride],16200 ± 6700
14,COc1cc2c(cc1OC)-c1cc3ccc(OC)c(OC)c3c[n+]1CC2 [Palmatine],24700 ± 2000
15,CN(C)CCC=C1c2ccccc2C=Cc2ccccc21 [Cyclobenzaprine HCl],18900 ± 4900
16,C[C@@H](O)[C@H]1C(=O)N2C(C(=O)[O-])=C(SC3Cn4cnc[n+]4C3)[C@H](C)[C@H]12 (stereo partly drawn) [Biapenem],28000 ± 2700
17,CS(=O)(=O)Nc1ccc([N+](=O)[O-])cc1Oc1ccccc1 [Nimesulide],22400 ± 1800
18,NC1CCN(c2nc3c(cc2F)c(=O)c(C(=O)O)cn3-c2ccc(F)cc2F)C1 (stereo not drawn) [Tosufloxacin p-Toluenesulfonate Hydrate],26400 ± 6900
19,CCN1CCN(C(=O)N[C@@H](C(=O)N[C@@H]2C(=O)N3C(C(=O)O)=C(CSc4nnnn4C)CS[C@H]23)c2ccc(O)cc2)C(=O)C1=O [Cefoperazone],23300 ± 2700

# Shown tab-delimited: part of the list above.
row	SMILES	imaged cell count per well
17	CS(=O)(=O)Nc1ccc([N+](=O)[O-])cc1Oc1ccccc1 [Nimesulide]	22400 ± 1800
18	NC1CCN(c2nc3c(cc2F)c(=O)c(C(=O)O)cn3-c2ccc(F)cc2F)C1 (stereo not drawn) [Tosufloxacin p-Toluenesulfonate Hydrate]	26400 ± 6900

# Later entries

row,SMILES,imaged cell count per well
1,COC(=O)C1=C(C)NC(C)=C(C(=O)OCCN2CCN(C(c3ccccc3)c3ccccc3)CC2)C1c1cccc([N+](=O)[O-])c1 (stereo not drawn) [Manidipine 2HCl],27300 ± 6300
2,CC[C@H](c1ccc(O)cc1)[C@@H](CC)c1ccc(O)cc1 [Hexestrol],23300 ± 2200
3,Cn1c([N+](=O)[O-])cnc1COC(N)=O [Ronidazole],25000 ± 1000
4,O=C(N[C@H](CO)[C@H](O)c1ccc([N+](=O)[O-])cc1)C(Cl)Cl [Chloramphenicol],20900 ± 4200
5,O=C(O)c1cc(/N=N/c2ccc(O)c(C(=O)O)c2)ccc1O [Olsalazine Sodium],26400 ± 3800
6,CO/N=C(\C(=O)N[C@@H]1C(=O)N2C(C(=O)[O-])=C(C[n+]3cccc4c3CCC4)CS[C@H]12)c1csc(N)n1 [Cefpirome sulfate],21900 ± 9500
7,Cc1c(-c2ccc(O)cc2)n(Cc2ccc(OCCN3CCCCCC3)cc2)c2ccc(O)cc12 [Bazedoxifene HCl],20000 ± 4700
8,CC(N)C12CC3CC(CC(C3)C1)C2 (stereo not drawn) [Rimantadine],17800 ± 6600
9,CC1(C)S[C@@H]2[C@H](NC(=O)COc3ccccc3)C(=O)N2[C@H]1C(=O)O [Penicillin V potassium salt],32200 ± 2500
10,Clc1ccc(CSC(Cn2ccnc2)c2ccc(Cl)cc2Cl)cc1 (stereo not drawn) [Sulconazole Nitrate],2620 ± 910
11,CCCCCc1ccc(C)cc1O [Amylmetacresol],22500 ± 4400
12,CCN(CC)C(=O)C1(c2ccccc2)CC1CN (stereo not drawn) [Milnacipran HCl],24000 ± 8500
13,CCn1cc(C(=O)O)c(=O)c2ccc(C)nc21 [Nalidixic acid],25200 ± 2500
14,COc1cc2c(cc1OC)C(=O)C(CC1CCN(Cc3ccccc3)CC1)C2 (stereo not drawn) [Donepezil],29900 ± 4000
15,CN1CCCN=C1/C=C/c1cccs1 [Pyrantel Pamoate],18900 ± 500
16,CCCN1CCCC[C@H]1C(=O)Nc1c(C)cccc1C [Ropivacaine HCl],18700 ± 5000
17,O=C(O)CCC(=O)Nc1ccc(S(=O)(=O)Nc2nccs2)cc1 [Succinylsulfathiazole],25300 ± 5300
18,CC[C@H]1OC(=O)C[C@@H](O)[C@H](C)[C@@H](O[C@@H]2O[C@H](C)[C@@H](O[C@H]3C[C@@](C)(O)[C@@H](O)[C@H](C)O3)[C@H](N(C)C)[C@H]2O)[C@@H](CC=O)C[C@@H](C)C(=O)/C=C/C(C)=C/[C@@H]1CO[C@@H]1O[C@H](C)[C@@H](O)[C@@H](OC)[C@H]1OC [Tylosin],29800 ± 1300
19,CC(=O)Oc1ccccc1C(=O)O [Aspirin],20500 ± 4100
